# According to PubChem BioAssay AID1508600 (Functional Genomics Laboratory (NCATS/FGL), 2020):
# The whole screen tested about 53,000 sequences, of which about 3,700 (7%) were called active.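 The calls were made as follows: active = gene knockdowns whose robust z-score for IL-1 alpha signal is at least 2 or at most -2, so actives lie on both sides; inactive = the rest.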 This is one part of the list.
# Experiment: Components of the Cytosolic LPS Sensing Pathway: Gene Identification via Genome-wide siRNA Screen;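 also: robust z of the log signal after scaling to non-targeting control siRNA wells of the plate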
# Settings: RAW264.7 macrophages, IL-1a HTRF, actives lie on both sides, screened at 100 nM (by protocol), cells primed 5 h with Pam3CSK4 first
# Summary of the method: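 Three distinct siRNAs per gene were tested singly at 100 nM in RAW264.7 macrophages. Following Pam3CSK4 priming and 24 hour LipidA transfection, IL-1a secretion was read by HTRF.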
row,Sequence,z-score
1,GGACCACAAAUAGCAAAAATT against Zfp74,inactive: -0.987
2,GGACCAUGAGGGAAUACAGTT against Bdkrb2,active: 4.91
3,GGGUUUGUUAAGUCCUGUGTT against Gsdmc,active: -2.09
4,GGAGACUGCUUCUAAAGAUTT against Fam114a2,inactive: -0.416
5,GGCAUUCAUCUAGUCCUGCTT against Bst1,inactive: -1.69
6,CGCAUGCUUCGGUACAUCATT against Macroh2a1,inactive: 1.4
7,GCUACGGCGUGGUUUAUGATT against Stk35,inactive: 0.017
8,CCCAAUAUGUUAGACCCUGTT against Slc16a8,inactive: 0.448
9,GGGUUUUUGUGUACAAUGATT against Ttll6,inactive: -0.0864
10,CGGGAGAUGCGUUUGUUUUTT against 6030458C11Rik,inactive: 1.52
11,GGAAGCUGCACGGCAACUUTT against Btn2a2,inactive: -0.132
12,CCUUCGAACUCGAAAAAUUTT against Olfr722,inactive: 0.338
13,GGCUUUCAAGAUUCAGUGATT against Gsta1,inactive: 0.103
14,CCUCAUGGCUUUGGCCAUUTT against Olfr1133,inactive: 0.66
15,GGAUUUAGGUUUUGGUUUUTT against Ghitm,inactive: 0.412
16,GGAUUGUCUUCCUACUGGGTT against Zdhhc4,inactive: 0.16
17,GGUGAGCGGCCAGAAGUUUTT against Elk1,inactive: 0.335
18,CCGUUACAAUCAGUUAUUATT against Ccdc88a,inactive: 0.316
19,GGAAAUCCUUGACUACAUUTT against Cyp2b19,inactive: 0.31
20,GGCUUCUGGACCUCAAACATT against Zfp92,active: -2.14
21,GGUCAUUAUUGGAUGCAUCTT against Mga,inactive: 0.474
22,GGCGAAAGCCUUGAGGUUGTT against Tra2a,inactive: 0.995
23,GGCGAACAUGCACUUUCACTT against Gramd3,inactive: -1.28

row,Sequence,z-score
1,GGAGCUCUUUGAGUACAUCTT against Ift46,active: 2.48
2,GGACUAGCAAGGCAAGUGATT against Dnase2b,inactive: 1.32
3,GGAUAAGUGGUCUGCACUATT against Ube2c,inactive: -0.412
4,GGAGGUGGUGUUUAUACCATT against Scrn2,inactive: 0.728
5,GGAAAAUCUAUAGGUAGAGTT against Nuak1,inactive: 1.26
6,GGAUUUAAUACCCAGCAGCTT against Nup54,inactive: 0.247
7,GGAUCAUUCGGACAAAAGUTT against Pax5,inactive: -1.31
8,GGUGUCCCUUAAUGUGUCCTT against Heg1,inactive: 0.671
9,GGUCACACAUUUUUUGUGATT against F8,inactive: 0.712
10,CCUACAGAAUAGAAAAUUCTT against Elmod2,inactive: -0.161
11,GGUGCUGAUCUACAGGAUGTT against Lrfn2,inactive: 0.721
12,CCCUUUCCAGCCAGAUCAATT against 1700016K19Rik,inactive: 1.58
13,CCCUAGUGCAGUGAUAACUTT against 1700016D06Rik,inactive: 0.938
14,GCAUCAAGAGAUCUGAUUATT against Cdt1,inactive: -1.12
15,GGUGAGGAGGAAAUCCUGCTT against Rdh10,inactive: -1.21
16,GGGCACCUAUUCAGAUACCTT against Map2,inactive: 0.685
17,GCUUUGUCCGCACAUUAUCTT against H3c15,inactive: -0.1
18,GGAAUUCCUCUUCAACAUGTT against Hoxd9,inactive: -0.295
19,GGAUGUUUUAAUCUAAAGCTT against Ccdc3,inactive: -0.106
20,CGUAUCUUAUAUCAGGAAATT against Trem1,inactive: 0.513
21,GGCCAAUGACAGAACCUAUTT against Atp8b3,inactive: -0.19
22,GGCUUUAAUGUGUCAGUACTT against Slc25a5,inactive: -0.228
23,GGAAUUUGUGACCAACUAUTT against Rbm4b,inactive: 1.07

# Rewritten bar-delimited: part of the list above
row | Sequence | z-score
12 | CCUUCGAACUCGAAAAAUUTT against Olfr722 | inactive: 0.338
13 | GGCUUUCAAGAUUCAGUGATT against Gsta1 | inactive: 0.103
14 | CCUCAUGGCUUUGGCCAUUTT against Olfr1133 | inactive: 0.66
15 | GGAUUUAGGUUUUGGUUUUTT against Ghitm | inactive: 0.412
16 | GGAUUGUCUUCCUACUGGGTT against Zdhhc4 | inactive: 0.16
17 | GGUGAGCGGCCAGAAGUUUTT against Elk1 | inactive: 0.335
18 | CCGUUACAAUCAGUUAUUATT against Ccdc88a | inactive: 0.316
19 | GGAAAUCCUUGACUACAUUTT against Cyp2b19 | inactive: 0.31
20 | GGCUUCUGGACCUCAAACATT against Zfp92 | active: -2.14
21 | GGUCAUUAUUGGAUGCAUCTT against Mga | inactive: 0.474
22 | GGCGAAAGCCUUGAGGUUGTT against Tra2a | inactive: 0.995
23 | GGCGAACAUGCACUUUCACTT against Gramd3 | inactive: -1.28
1 | GGAGCUCUUUGAGUACAUCTT against Ift46 | active: 2.48
2 | GGACUAGCAAGGCAAGUGATT against Dnase2b | inactive: 1.32
3 | GGAUAAGUGGUCUGCACUATT against Ube2c | inactive: -0.412
4 | GGAGGUGGUGUUUAUACCATT against Scrn2 | inactive: 0.728

# Additional records.

row,Sequence,z-score
1,CCUCCAGUGGUAACAUUAGTT against Olfr301,inactive: 0.944
2,GGCGAGAAGGAAAUGUACATT against Arpc3,active: 2.62
3,CCACGUUUACACCAACGUGTT against Fads6,inactive: 0.357
4,GGCACUCAAUGUCUUCUAUTT against Nbeal1,inactive: 0.516
5,GGAUUGAGAAUAUCUGAGUTT against H2-T3,inactive: -0.934
6,GGGAGUCUAUGCUAUGGGUTT against Ddx19b,inactive: -0.38
7,GGCCAAGUUCCAUAUCACCTT against Eefsec,inactive: 0.46
8,GGAAGUUCCGUCGAUUUGATT against Cyp8b1,inactive: -0.604
9,GCACAAUGUCCCAUCGUGGTT against Rps5,inactive: -0.6
10,CCUUCUCUCAUAACUCAUCTT against Rbak,inactive: 1.23
11,GGUUUUUCUCUCUCUCAUUTT against Epas1,inactive: 0.166
12,GCCAUGCUAAUCAAGACGGTT against Gtf2ird2,inactive: -0.99
13,GCAAAAGUUCCAAAAAUCCTT against Cryba1,inactive: 0.0525
14,CGGAAUGGUUCUUUCACAGTT against Adamts13,inactive: -0.777
15,GGAACAUCAAUCCAAAUCCTT against Fam122c,inactive: 1.33
16,GCUUCUGCUAGAUGAAAAUTT against Rgs7,inactive: -0.127
17,GGGUGUUCUACAGAAAUGATT against Orc5,inactive: -1.98
18,GGAGUUCGAGAAAGACAAATT against Eif4g3,inactive: 0.938
19,GGAGUGAUUCAGUGAAAACTT against Iqcf3,inactive: -0.289
20,GGCGAUGACAAGGAUCCUUTT against Cyb5b,inactive: 0.2
21,CCUGAUUUAUGCAGAAUUATT against Ube2d3,inactive: 0.775
22,GGCUGUCGAGGAUCUAAACTT against Cyp4a14,inactive: 0.702
